Test results: patent US11344009B2, “All sterile males of culicine mosquitoes: a method of creation” (priority 2014, dated 2022)
Like-named read-outs stand apart in the source and are kept apart here. At least one compound was matched to its structure with a doubt left.

Key:
Wolbachia [1] = conditions: two discrete generations in Drososphila; cited from earlier work
Wolbachia [2] = conditions: one generation in Aedes albopictus (between 10-15 days); cited from earlier work
Tra-2 = assay: Q-PCR of Tra-2 knockdown level in Tra-2 RNAi/Tet-on transgenic males induced by Dox; assay type: in vivo, Aedes aegypti; conditions: 30 mg/L; Tra-2 Tet-on system
Protocol: The Ae. aegypti strain named Hanoi1 was transformed with a Tra-2 RNAi (long dsmRNA) construct. This construct was assembled with rtTA(pTet-on advanced) and pTre-tight regulatory system as mentioned in Example 1. The strain was challenged with Dox three different concentrations (0.3 mg/L; 3 mg/L and 30 mg/L) between the third larvae stage and 3 day old adult. The males from each Dox concentration challenge were divided into two groups; one group was Q-PCR to reveal the knockdown level of Tra-2. The other group was outcrossed with wild type females. Total RNA from Hanoi 1 wild type males and Tra-2 RNAi/Hanoi 1 transgenic males were isolated in pools of 5 males in 3 biological replicates. The primers used for Actin5C (endogenous reference gene) were F: (5′-[…]-3′) (SEQ ID NO: 53) and R: (5′-[…]-3′) (SEQ ID NO: 54) which produced a 125 bp fragment. Primers used for amplifying Tra-2, which produced a 125 bp fragment nearby the Tra-2 RNAi target site, were: Forward: (5′ […] 3′) (SEQ ID NO: 55) and Reverse: (5′ […] 3′) (SEQ ID NO: 56). […] The knockdown of expression levels were calculated by the relative standard curve method (Applied Biosystems), in which Act5C as an endogenous reference and wild type Hanoi 1 as an exogenous calibrator. PCR cycle was 95° C. for 15 mins; 45 cycles of 10 sec at 95° C., 10 sec at XC, 20 sec at 72° C., plate reading. […]

Row | Structure (SMILES) | Concentration needed to remove Wolbachia from insects (Wolbachia [1]) | Concentration needed to remove Wolbachia from insects (Wolbachia [2]) | Time within which knockdown was significantly induced (Tra-2)
1 | CN(C)[C@@H]1C(O)=C(C(N)=O)C(=O)[C@@]2(O)C(O)=C3C(=O)c4c(O)cccc4[C@@](C)(O)[C@H]3C[C@@H]12 [Tet, Tetracycline] | 125 mg Tet/L | up to 5000 mg/L | –
2 | C[C@H]1c2cccc(O)c2C(=O)C2=C(O)[C@]3(O)C(=O)C(C(N)=O)=C(O)[C@@H](N(C)C)[C@@H]3[C@@H](O)[C@@H]21 [Dox, Doxycycline] | – | – | ≤ 12 h
